Data: PubChem BioAssay AID2685 (National Center for Advancing Translational Sciences (NCATS), 2010)
Values joined by “and” are separate entries in the source; they are usually repeats but may differ in a detail not shown here. Equal values may be shown once. The list shows a part of the results. These are further read-outs of the screen, such as a control signal, another cell line or another target. No call is given for them. Most of these compounds were active or inconclusive in the main read-out, so they are no random draw. The note in brackets gives the kind of curve behind each potency; many fits are weak.

Assay: qHTS Assay for Lipid Storage Modulators in Drosophila S3 Cells;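 on cell number change: cells counted by Cell Tracker Red CMTPX staining in the red channel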
Conditions: BODIPY lipid droplet fluorescence, 18-24 h; for cell number change: measured here: cell count max response, cells fed with added oleic acid
How it was run: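 Drosophila S3 cells loaded with oleic acid (400 uM, as added) and compounds at several concentrations; lipid droplets imaged by 488-nm laser-scanning cytometry, 500–530 nm intensity and object ratio to cell channel. Percent activity normalized to 20 uM Triacsin C.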

[1] = measured here: lipid fluorescence (Fed channel) AC50, cells fed with added oleic acid
[2] = measured here: cell number channel AC50, cells fed with added oleic acid

Structure (SMILES)	cell number change	AC50 [1]	AC50 [2]
COc1cc2c(cc1OC)-c1c3c(cc4c1[C@@H](C2)N(C)CC4)OCO3	-29%	9.2 µM [falling, partial curve, poor fit]	–
CC(Cc1ccccc1)NC(=O)Cc1ccc([N+](=O)[O-])cc1 (stereo not drawn)	3.94%	–	–
O=C1/C(=C/c2cccc([N+](=O)[O-])c2)N2CCC1CC2	-12.1%	25.9 µM [falling, single point]	–
O=C(CN1CC=C(c2ccccc2)CC1)NC(=O)NCc1ccccc1	1.79%	–	0.731 µM [falling, full curve, poor fit]
COC(=O)C1C2c3ccccc3OC1(C)N=c1s/c(=C/c3cnn(C)c3C)c(=O)n12 (stereo not drawn)	–	0.731 µM [rising, single point]	–
COC(=O)C1=C(c2ccc(F)cc2F)C[C@@H]2CC[C@H]1N2C(=O)NCCCOC(C)C	-22.9%	0.0058 µM [falling, full curve, poor fit]	0.517 µM [falling, full curve, poor fit]
Cc1cc(OCC(=O)N2CCC(C(=O)O)CC2)c2c3c(c(=O)oc2c1)CCC3	9.12%	29.1 µM [rising, single point]	–
O=c1[nH]c(O)c(N=Nc2ccc([N+](=O)[O-])cc2)c(=O)[nH]1	-63.4%	3.26 µM [falling, partial curve, poor fit]	4.11 µM [falling, partial curve]
CC1=NCCc2c1[nH]c1ccccc21	-6.89%	25.9 µM [falling, single point]	–
c1ccc(Cn2ccnc2)cc1	–	5.17 µM [rising, single point]	–
CCOC(=O)C1CCN(/C=C2/C(=O)NC(=S)N(c3ccccc3F)C2=O)CC1	-37%	3.26 µM [falling, full curve]	3.26 µM [falling, full curve]
CCC(=O)N1CC(=O)Nc2ccc(Br)cc2C1c1ccccc1 (stereo not drawn)	23.7%	9.2 µM [rising, partial curve]	–
CCN1CCN(Cc2nc3ccc([N+](=O)[O-])cc3c(=O)n2-c2ccccc2F)CC1	32.6%	–	6.51 µM [rising, partial curve]
CC(=O)OC1(c2ccccc2)CCN(C)C2CCCCC21 (stereo not drawn)	0.857%	–	–
Cc1ccc(/C=C2\C(=O)NC(=O)N(Cc3ccccc3Cl)C2=O)o1	16%	1.16 µM [rising, single point]	1.16 µM [rising, single point]
COc1cc(C(=O)N2C[C@H]3C[C@@H](C2)c2cccc(=O)n2C3)cc(OC)c1OC	24.2%	29.1 µM [rising, single point]	–
Cc1ccc(-c2nn(Cc3ccccc3)cc2C=O)cc1C	-23.6%	3.26 µM [rising, partial curve]	0.00517 µM [falling, full curve, poor fit]

Structure (SMILES)	cell number change	AC50 [1]	AC50 [2]
CCn1c(NN=O)nc2ccccc21	-32.3%	29.1 µM [falling, single point]	–
Cn1c(O)c(C(=Nc2ccc(F)cc2)c2ccccc2Cl)c(=O)n(C)c1=O	26.6%	2.31 µM [rising, full curve, poor fit]	–
O=C(/C=C/c1ccc(F)cc1)NC(=S)N1C[C@H]2C[C@H](C1)c1cccc(=O)n1C2	26.9%	–	–
CN=C(SCc1cc2c(cc1Cl)OCO2)c1c(O)n(C)c(=O)n(C)c1=O	-30.6%	6.51 µM [rising, single point]	16.4 µM [falling, single point]
ClC1C(Cl)C(Cl)C(Cl)C(Cl)C1Cl (stereo not drawn)	23.1% and -28.5%	14.6 µM [rising, partial curve, poor fit] and 29.1 µM [falling, single point]	1.64 µM [rising, full curve, poor fit]
O=c1cccc2n1C[C@@H]1C[C@@H]2CN(CC(O)c2ccc([N+](=O)[O-])cc2)C1 (stereo partly drawn)	21.3%	14.6 µM [rising, partial curve]	–
COc1ccc(C(O)c2ccccc2OP(=O)(N(C)C)N(C)C)cc1 (stereo not drawn)	30.7%	29.1 µM [rising, single point]	0.184 µM [rising, partial curve, poor fit]
CC12CN3CC(C)(CN(C1)C3c1ccco1)C2=O (stereo not drawn)	-26.6%	–	1.84 µM [falling, full curve, poor fit]
CC1CCCC(C2(O)C(=O)Nc3ccccc32)C1=O (stereo not drawn)	-6.41%	7.31 µM [falling, partial curve, poor fit]	–
CC1=C(C(=O)O)N2C(=O)C(NC(=O)Cc3ccccc3)C2SC1 (stereo not drawn)	-21.9%	1.64 µM [falling, full curve]	–
O=C(COC(=O)c1ccc(O)cc1)Nc1ccc(Cl)cc1C(=O)c1ccccc1	-72.1%	13 µM [falling, partial curve]	13 µM [falling, partial curve]
CC(O)(CS(=O)(=O)c1ccccc1)C(=O)Nc1cccc(C(F)(F)F)c1 (stereo not drawn)	5.75%	0.13 µM [rising, full curve, poor fit]	–
C=CCN1CC[C@]23c4c5ccc(O)c4O[C@H]2C(=O)CC[C@@]3(O)[C@H]1C5	-11.8%	25.9 µM [falling, single point]	–
COC(=O)C1=C(c2ccc(OC)c(OC)c2)C[C@@H]2CC[C@H]1N2C(=O)NCC1CC1	15%	4.11 µM [falling, single point]	4.11 µM [falling, partial curve]
Cc1cc(C)cc(-n2c(O)c(C=Nc3ccc(N4CCOCC4)cc3)c(=O)[nH]c2=S)c1	-41.1%	3.66 µM [rising, full curve, poor fit]	0.651 µM [falling, full curve]
CCC(=O)CC(c1ccc([N+](=O)[O-])cc1)c1c(O)c2ccccc2oc1=O (stereo not drawn)	162%	29.1 µM [rising, single point]	18.4 µM [rising, single point]

A section from further up, as a working copy:
Structure (SMILES)	cell number change	AC50 [1]	AC50 [2]
COC(=O)C1=C(c2ccc(OC)c(OC)c2)C[C@@H]2CC[C@H]1N2C(=O)NCC1CC1	15%	4.11 µM [falling, single point]	4.11 µM [falling, partial curve]
Cc1cc(C)cc(-n2c(O)c(C=Nc3ccc(N4CCOCC4)cc3)c(=O)[nH]c2=S)c1	-41.1%	3.66 µM [rising, full curve, poor fit]	0.651 µM [falling, full curve]
CCC(=O)CC(c1ccc([N+](=O)[O-])cc1)c1c(O)c2ccccc2oc1=O (stereo not drawn)	162%	29.1 µM [rising, single point]	18.4 µM [rising, single point]
